The other results are listed elsewhere or left out. Residues, ends and D or L forms follow the SMILES beside them. *: point of attachment. Cbz = O=C(OCc1ccccc1)*
Legend:
Experiment in all cases: log2 fold change, soluble protein after heating vs DMSO (PISA); higher = thermal stabilisation; K562 cells, 10 uM, 30 min; active = over 0.2 and 3.5 SD of the protein, either way, in both replicates (recomputed)
[1] = compound: C#Cc1cccc(Nc2ncnc3cc(OCCOC)c(OCCOC)cc23)c1 [erlotinib]
Summary of the method: (§1)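 K562 cells at 2×10^6 cells/mL were treated with 10 μM compound for 30 min. Aliquots were heated for 3 min across 48°C-58°C, pooled, and extracted in PBS with 0.5% NP-40 at 4°C; soluble protein was the supernatant after 21,000xg for 90 min. Soluble protein was quantified by TMTpro 16plex LC-MS/MS with channel sums equalised, and reported as log2 fold change in thermal stability against DMSO controls, with values from duplicates.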

By UniProt entry, the sequences of proteins in these tests, tags left out. Where a name states a change or a piece, a line headed by the entry shows the natural chain unless it says otherwise.
UniProt P32519: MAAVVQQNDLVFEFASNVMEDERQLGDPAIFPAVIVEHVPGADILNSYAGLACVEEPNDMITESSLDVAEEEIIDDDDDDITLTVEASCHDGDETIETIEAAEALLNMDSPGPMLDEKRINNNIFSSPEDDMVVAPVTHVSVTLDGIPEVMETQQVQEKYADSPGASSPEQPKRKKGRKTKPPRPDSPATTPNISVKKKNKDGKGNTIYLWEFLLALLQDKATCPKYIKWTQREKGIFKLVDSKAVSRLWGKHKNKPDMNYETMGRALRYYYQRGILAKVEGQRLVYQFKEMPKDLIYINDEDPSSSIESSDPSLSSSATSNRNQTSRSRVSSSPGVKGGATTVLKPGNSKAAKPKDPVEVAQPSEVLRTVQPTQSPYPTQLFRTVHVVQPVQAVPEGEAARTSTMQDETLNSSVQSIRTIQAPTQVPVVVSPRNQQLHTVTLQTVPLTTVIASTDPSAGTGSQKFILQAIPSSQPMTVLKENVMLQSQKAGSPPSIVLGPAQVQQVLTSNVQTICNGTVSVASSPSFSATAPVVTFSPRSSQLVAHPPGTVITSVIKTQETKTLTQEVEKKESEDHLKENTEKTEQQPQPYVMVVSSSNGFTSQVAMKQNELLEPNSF
UniProt P24534: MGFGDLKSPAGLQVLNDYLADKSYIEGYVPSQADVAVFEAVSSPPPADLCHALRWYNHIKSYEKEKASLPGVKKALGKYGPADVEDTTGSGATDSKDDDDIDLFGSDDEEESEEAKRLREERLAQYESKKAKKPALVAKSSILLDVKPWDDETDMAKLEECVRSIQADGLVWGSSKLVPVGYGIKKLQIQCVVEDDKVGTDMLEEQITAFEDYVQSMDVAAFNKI
UniProt P18146, whole entry, looked up: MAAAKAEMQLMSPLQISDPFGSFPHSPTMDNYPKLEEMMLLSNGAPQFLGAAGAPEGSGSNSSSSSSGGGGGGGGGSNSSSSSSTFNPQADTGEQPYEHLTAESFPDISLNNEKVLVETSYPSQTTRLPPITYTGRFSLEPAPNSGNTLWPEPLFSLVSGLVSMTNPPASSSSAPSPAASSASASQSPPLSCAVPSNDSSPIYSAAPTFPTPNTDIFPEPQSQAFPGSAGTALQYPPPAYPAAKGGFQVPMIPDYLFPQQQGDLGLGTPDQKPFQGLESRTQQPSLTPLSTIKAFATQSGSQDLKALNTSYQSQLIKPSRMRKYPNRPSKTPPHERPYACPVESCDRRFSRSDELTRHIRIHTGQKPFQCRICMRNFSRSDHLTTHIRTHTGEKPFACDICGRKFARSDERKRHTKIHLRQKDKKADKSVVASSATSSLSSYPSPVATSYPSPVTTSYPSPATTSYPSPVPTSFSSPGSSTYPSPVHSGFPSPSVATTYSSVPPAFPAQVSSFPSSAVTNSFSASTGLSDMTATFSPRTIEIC
UniProt Q9H777: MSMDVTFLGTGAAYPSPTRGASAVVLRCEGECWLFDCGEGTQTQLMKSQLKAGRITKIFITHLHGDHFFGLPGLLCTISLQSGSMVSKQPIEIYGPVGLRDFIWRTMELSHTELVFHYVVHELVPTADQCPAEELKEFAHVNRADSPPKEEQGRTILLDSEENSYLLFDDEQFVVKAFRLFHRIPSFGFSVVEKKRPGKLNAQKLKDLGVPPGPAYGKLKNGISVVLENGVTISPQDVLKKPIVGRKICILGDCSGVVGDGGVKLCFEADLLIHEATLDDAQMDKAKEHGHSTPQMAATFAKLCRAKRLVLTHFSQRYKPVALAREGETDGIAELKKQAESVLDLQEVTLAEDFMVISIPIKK
UniProt O60739, whole entry, looked up: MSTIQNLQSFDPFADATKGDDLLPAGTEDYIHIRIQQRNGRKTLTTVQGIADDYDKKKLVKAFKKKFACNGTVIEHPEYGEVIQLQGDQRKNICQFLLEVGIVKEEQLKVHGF
UniProt O43432, whole entry, looked up: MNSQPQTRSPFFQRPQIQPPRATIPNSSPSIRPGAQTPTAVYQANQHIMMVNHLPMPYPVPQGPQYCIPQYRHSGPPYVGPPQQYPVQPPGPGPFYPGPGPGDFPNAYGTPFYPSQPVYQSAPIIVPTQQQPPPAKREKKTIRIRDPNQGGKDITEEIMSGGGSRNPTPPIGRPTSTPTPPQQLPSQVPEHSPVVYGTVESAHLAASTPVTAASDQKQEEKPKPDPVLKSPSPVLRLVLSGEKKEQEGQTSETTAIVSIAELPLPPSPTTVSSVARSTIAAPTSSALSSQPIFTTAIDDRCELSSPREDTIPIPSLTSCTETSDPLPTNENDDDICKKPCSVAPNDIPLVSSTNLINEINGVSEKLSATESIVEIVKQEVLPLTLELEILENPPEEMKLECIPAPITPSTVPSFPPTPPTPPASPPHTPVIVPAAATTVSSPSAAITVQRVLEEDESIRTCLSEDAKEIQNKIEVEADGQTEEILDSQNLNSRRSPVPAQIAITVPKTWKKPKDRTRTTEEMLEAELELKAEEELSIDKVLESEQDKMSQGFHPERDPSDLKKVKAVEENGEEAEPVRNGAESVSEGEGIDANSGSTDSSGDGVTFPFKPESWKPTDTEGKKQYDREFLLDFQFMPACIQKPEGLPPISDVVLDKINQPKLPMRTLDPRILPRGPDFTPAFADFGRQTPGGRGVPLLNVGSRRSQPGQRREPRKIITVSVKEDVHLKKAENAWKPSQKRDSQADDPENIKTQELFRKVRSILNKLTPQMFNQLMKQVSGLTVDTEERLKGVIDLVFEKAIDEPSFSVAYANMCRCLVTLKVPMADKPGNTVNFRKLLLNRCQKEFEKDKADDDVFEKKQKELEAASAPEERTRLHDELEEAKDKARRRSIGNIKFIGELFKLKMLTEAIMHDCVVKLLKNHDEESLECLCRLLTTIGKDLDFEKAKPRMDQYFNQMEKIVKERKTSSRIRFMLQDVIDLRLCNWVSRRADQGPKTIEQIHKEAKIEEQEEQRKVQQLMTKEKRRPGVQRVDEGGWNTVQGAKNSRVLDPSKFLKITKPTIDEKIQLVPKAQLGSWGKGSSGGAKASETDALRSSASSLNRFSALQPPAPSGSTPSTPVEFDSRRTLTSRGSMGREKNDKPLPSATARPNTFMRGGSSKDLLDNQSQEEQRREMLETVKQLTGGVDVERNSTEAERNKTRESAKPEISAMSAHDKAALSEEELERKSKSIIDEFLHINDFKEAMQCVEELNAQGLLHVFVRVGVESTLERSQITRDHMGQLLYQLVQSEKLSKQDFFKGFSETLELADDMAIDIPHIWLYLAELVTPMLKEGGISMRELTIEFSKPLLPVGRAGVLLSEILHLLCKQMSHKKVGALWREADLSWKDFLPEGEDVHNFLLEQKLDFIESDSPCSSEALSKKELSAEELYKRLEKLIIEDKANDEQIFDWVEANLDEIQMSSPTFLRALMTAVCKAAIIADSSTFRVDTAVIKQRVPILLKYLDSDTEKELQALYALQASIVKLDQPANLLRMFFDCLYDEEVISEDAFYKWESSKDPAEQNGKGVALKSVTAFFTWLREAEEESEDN
UniProt Q8N3D4: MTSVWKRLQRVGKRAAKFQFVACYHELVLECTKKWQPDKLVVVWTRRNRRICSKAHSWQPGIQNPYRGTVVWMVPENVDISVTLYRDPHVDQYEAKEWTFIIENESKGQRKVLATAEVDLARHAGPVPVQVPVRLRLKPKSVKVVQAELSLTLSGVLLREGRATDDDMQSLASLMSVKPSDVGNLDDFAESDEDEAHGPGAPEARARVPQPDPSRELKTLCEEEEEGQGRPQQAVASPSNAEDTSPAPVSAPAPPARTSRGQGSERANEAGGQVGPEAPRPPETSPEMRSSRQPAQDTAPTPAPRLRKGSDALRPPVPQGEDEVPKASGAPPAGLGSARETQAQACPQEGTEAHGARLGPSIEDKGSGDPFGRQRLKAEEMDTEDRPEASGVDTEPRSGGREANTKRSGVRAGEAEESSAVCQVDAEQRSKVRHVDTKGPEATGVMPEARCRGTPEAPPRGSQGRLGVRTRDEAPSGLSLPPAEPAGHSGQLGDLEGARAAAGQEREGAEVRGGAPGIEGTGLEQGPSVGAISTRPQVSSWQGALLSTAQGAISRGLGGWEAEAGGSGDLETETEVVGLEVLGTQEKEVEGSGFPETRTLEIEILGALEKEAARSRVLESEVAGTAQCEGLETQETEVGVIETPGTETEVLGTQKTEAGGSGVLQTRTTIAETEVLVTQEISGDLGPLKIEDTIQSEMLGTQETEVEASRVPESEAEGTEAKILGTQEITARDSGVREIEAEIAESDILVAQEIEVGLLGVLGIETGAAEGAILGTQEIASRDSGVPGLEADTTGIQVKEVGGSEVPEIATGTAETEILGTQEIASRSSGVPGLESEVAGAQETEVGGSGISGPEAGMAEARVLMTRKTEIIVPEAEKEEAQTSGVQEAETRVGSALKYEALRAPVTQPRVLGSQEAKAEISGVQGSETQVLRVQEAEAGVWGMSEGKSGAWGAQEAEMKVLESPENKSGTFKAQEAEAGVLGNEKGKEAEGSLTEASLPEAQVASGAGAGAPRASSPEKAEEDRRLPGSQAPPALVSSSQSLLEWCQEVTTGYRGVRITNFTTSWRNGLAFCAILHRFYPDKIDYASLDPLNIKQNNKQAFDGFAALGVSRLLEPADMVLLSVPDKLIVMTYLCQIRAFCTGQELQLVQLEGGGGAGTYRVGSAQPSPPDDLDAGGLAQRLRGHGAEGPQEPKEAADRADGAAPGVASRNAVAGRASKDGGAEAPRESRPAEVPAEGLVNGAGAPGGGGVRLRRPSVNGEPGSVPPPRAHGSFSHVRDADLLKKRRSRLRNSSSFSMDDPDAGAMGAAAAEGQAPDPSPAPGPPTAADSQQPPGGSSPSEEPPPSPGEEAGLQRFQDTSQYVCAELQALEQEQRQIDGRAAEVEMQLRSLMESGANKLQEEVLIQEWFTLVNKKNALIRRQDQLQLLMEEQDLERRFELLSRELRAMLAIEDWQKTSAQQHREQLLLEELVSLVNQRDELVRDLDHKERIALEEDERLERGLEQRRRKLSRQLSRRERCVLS
UniProt O75071: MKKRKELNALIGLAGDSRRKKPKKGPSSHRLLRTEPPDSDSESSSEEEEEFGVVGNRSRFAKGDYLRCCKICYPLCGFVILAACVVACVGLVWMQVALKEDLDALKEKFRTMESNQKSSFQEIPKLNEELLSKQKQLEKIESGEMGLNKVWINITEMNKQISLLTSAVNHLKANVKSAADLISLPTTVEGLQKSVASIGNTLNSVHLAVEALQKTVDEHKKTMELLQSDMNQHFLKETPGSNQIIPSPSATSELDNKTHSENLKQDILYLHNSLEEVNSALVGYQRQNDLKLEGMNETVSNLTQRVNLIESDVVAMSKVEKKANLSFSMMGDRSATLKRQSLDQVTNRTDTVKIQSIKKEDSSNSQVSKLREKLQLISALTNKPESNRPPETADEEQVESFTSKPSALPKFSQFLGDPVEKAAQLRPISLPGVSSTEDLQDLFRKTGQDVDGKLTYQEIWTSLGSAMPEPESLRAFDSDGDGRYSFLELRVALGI
UniProt Q5NDL2: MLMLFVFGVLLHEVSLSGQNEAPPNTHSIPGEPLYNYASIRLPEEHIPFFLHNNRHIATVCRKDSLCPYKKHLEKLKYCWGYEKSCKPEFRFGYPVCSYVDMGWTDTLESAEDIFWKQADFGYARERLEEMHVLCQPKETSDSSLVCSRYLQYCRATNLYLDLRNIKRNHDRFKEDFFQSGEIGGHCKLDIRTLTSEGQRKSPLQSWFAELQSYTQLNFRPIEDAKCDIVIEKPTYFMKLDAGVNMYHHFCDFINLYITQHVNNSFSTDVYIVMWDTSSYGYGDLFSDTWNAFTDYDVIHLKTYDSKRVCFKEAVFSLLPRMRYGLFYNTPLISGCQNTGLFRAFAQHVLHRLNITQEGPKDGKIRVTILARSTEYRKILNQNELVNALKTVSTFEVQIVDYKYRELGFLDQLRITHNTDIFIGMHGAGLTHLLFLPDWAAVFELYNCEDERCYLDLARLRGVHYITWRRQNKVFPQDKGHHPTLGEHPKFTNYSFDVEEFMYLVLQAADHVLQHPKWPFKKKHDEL
UniProt P26641, whole entry, looked up: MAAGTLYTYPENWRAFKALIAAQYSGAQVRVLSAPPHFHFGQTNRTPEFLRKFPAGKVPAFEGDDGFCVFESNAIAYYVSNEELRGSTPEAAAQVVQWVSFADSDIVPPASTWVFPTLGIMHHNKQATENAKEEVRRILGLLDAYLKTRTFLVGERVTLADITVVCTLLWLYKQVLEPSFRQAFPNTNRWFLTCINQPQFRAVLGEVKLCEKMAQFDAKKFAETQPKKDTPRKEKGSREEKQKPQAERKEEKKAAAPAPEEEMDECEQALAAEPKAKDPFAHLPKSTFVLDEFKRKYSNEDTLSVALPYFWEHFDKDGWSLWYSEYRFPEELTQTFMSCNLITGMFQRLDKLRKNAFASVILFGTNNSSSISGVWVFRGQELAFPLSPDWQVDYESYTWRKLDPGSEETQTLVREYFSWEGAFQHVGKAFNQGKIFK

[2] = compound: C/C(=N\NC(=O)C1=CC(=CC=C1)S(=O)(=O)N2CCOCC2)/C3=C(C=CC(=C3)Cl)O
Summary of the method: as §1

[3] = compound: C1=CC(=C(C=C1Cl)C2=NC3=NC=CN=C3C(=N2)NC4=CC=NC=C4)F
Summary of the method: as §1

[4] = compound: C1=CC(=CC=C1C2=NC3=C(N2)C=C(C=C3)C(=O)N)OC4=CC=C(C=C4)Cl
Summary of the method: as §1

[5] = compound: C1=CC2=C(C=CC(=C2)/C=C\3/C(=O)NC(=NCC4=CC=CS4)S3)N=C1
Summary of the method: as §1

[6] = compound: C1=CC=C(C=C1)C2=NC(=C(N2)C3=CC=NC=C3)C4=CC(=C(C=C4)Cl)O
Summary of the method: as §1

[7] = compound: C1=CC=C2C(=C1)C3=NNC4=CC=CC(=C43)C2=O
Summary of the method: as §1

[8] = compound: C1CCN(C1)C(=O)NC2=CC=CC(=C2)NC3=NC=C(C(=N3)NCCC4=CN=CN4)Br
Summary of the method: as §1

[9] = compound: C1CN(CCC1(CC2=CC=C(C=C2)Cl)N)C3=NC=NC4=C3C=CN4
Summary of the method: as §1

[10] = compound: C1COCCN1CCN2C3=CC=CC=C3N=C2NC(=O)C4=CC(=CC=C4)[N+](=O)[O-] [IRAK-1-4 Inhibitor I]
Summary of the method: as §1

[11] = compound: CC(=O)c1cnc2ccc(-c3cc(Cl)c(O)c(Cl)c3)nc2c1N[C@H]1CC[C@H](CN(C)C)CC1
Summary of the method: as §1

[12] = compound: CC(C)(C)Cn1c(N)nc2ccc(-c3[nH]c(C(C)(C)C)nc3-c3ccc(F)cc3)nc21 [ralimetinib]
Summary of the method: as §1

[13] = compound: CC(C)(O)CC(=O)NCCn1ccc2ncnc(Nc3ccc(Oc4cccc(C(F)(F)F)c4)c(Cl)c3)c21
Summary of the method: as §1

[14] = compound: CC(C)C1=C2N=C(C=C(N2N=C1)NCC3=CC=CC=C3)NCCCCCCN
Summary of the method: as §1

[15] = compound: CC(C)C[C@@H](C=O)NC(=O)[C@H](CC(C)C)NC(=O)[C@H](CC(C)C)NC(=O)OCc1ccccc1
Summary of the method: as §1

[16] = compound: CC(C)N(C[C@H]1O[C@@H](n2cnc3c(N)ncnc32)[C@H](O)[C@@H]1O)[C@H]1C[C@@H](CCc2nc3cc(C(C)(C)C)ccc3[nH]2)C1 [pinometostat]
Summary of the method: as §1

[17] = compound: CC1=C(C2=C(C=C1)C(=O)C3=CC=CC=C3N2CCCN)C
Summary of the method: as §1

[18] = compound: C1=CC2=NC=CN=C2C=C1/C=C/3\C(=O)NC(=O)S3
Summary of the method: as §1

[19] = compound: C=CC(=O)N1CCC[C@@H](n2nc(-c3ccc(Oc4ccccc4)cc3)c3c(N)ncnc32)C1 [ibrutinib]
Summary of the method: as §1

[20] = compound: CC1=C(C(CC(=O)N1)C2=CC=C(C=C2)C(F)(F)F)C(=O)NC3=C(C=C4C(=C3)C=NN4)F
Summary of the method: as §1

Measured: log2 fold change

ELF1 (UniProt P32519)
inactive: [1] -0.016 | [2] -0.052 | [3] 0.068 | [4] 0.028 | [5] -0.003 | [6] 0.082 | [7] -0.091 | [8] 0.013 | [9] -0.092 | [10] -0.12 | [11] 0.143 | [12] 0.186 | [14] -0.072 | [15] -0.076 | [16] 0.053 | [17] -0.473
active: [13] -0.567

EEF1B2 (UniProt P24534)
inactive: [1] -0.006 | [2] 0.033 | [3] -0.028 | [4] -0.058 | [5] 0.008 | [18] -0.036 | [6] 0.027 | [7] 0.02 | [8] 0.064 | [9] -0.058 | [10] -0.01 | [19] -0.054 | [11] 0.009 | [12] 0.003 | [13] 0.011 | [14] -0.069 | [15] 0.04 | [16] 0.001 | [17] 0.047

EFEMP1 (UniProt Q12805)
inactive: [1] -0.279 | [2] -0.097 | [4] 0.137 | [5] 0.177 | [6] -0.074 | [7] -0.056 | [8] 0.11 | [9] -0.03 | [10] 0.055 | [11] 0.067 | [12] -0.002 | [14] 0.048 | [15] 0.05 | [16] -0.141 | [17] -0.184

EGR1 (UniProt P18146)
active: [11] -1.07
inactive: [1] -0.105 | [2] 0.001 | [3] 0.071 | [4] 0.176 | [5] 0.208 | [18] 0.088 | [6] -0.28 | [7] -0.474 | [8] 0.118 | [9] -0.121 | [19] 0 | [12] 0.042 | [13] 0.044 | [14] -0.452 | [15] 0.153 | [17] -0.472

EIF3G (UniProt K7ER90)
inactive: [1] 0.057 | [2] 0.005 | [3] -0.004 | [4] 0.004 | [5] -0.025 | [18] 0.527 | [7] -0.009 | [8] 0.016 | [9] 0.015 | [10] -0.077 | [19] -0.087 | [11] -0.085 | [13] -0.041 | [14] -0.099 | [16] -0.036 | [20] 0.075 | [17] 0.127

ELAC1 (UniProt Q9H777)
inactive: [1] 0.035 | [2] -0.068 | [3] 0.04 | [4] -0.061 | [5] 0.041 | [7] -0.021 | [10] 0.028 | [11] 0.027 | [13] 0.027 | [14] 0.116 | [16] -0.129

EIF1B (UniProt O60739)
inactive: [1] -0.09 | [3] 0.073 | [4] -0.048 | [18] 0.099 | [6] 0.1 | [10] 0.106 | [19] 0.19 | [12] 0.027 | [13] -0.057 | [14] 0.105 | [15] -0.275 | [16] -0.192

ELMO1 (UniProt Q92556)
inactive: [1] 0.111 | [3] -0.079 | [4] -0.001 | [18] 0.037 | [6] -0.308 | [10] -0.022 | [19] -0.176 | [12] 0.069 | [13] -0.091 | [14] -0.094 | [16] -0.161
active: [15] 0.761

EIF4G3 isoform 3 (UniProt O43432)
inactive: [1] 0.047 | [2] 0.01 | [4] -0.083 | [5] 0.041 | [18] -0.046 | [6] -0.028 | [7] 0.071 | [8] -0.049 | [9] -0.125 | [10] 0.012 | [19] 0 | [11] -0.074 | [12] -0.003 | [14] -0.079 | [15] 0.017 | [16] 0.079 | [17] 0.03

EHBP1L1 (UniProt Q8N3D4)
inactive: [1] -0.005 | [2] 0.088 | [3] 0.06 | [4] -0.005 | [5] 0.057 | [18] 0.026 | [6] -0.013 | [7] -0.03 | [8] -0.1 | [9] -0.116 | [10] -0.044 | [19] -0.054 | [11] -0.077 | [12] 0.083 | [13] -0.001 | [14] -0.034 | [15] 0.05 | [16] 0.086 | [17] 0.028

EIF3J isoform 2 (UniProt O75822)
inactive: [1] 0.094 | [2] -0.093 | [3] 0.029 | [4] 0.005 | [5] 0.14 | [18] -0.042 | [7] -0.138 | [8] 0.143 | [9] 0 | [10] 0.052 | [19] 0.014 | [11] -0.071 | [13] -0.05 | [14] 0.036 | [16] -0.018 | [17] 0.107

EFCAB14 (UniProt O75071)
inactive: [1] 0.051 | [2] -0.053 | [3] 0.013 | [4] 0.024 | [5] -0.049 | [18] 0.033 | [6] 0.159 | [7] -0.119 | [8] 0.044 | [9] -0.032 | [10] -0.016 | [19] 0.043 | [11] -0.196 | [12] 0.135 | [13] -0.009 | [14] -0.127 | [15] -0.063 | [16] -0.061 | [17] 0.006

EOGT (UniProt Q5NDL2)
inactive: [1] -0.058 | [2] -0.018 | [3] -0.032 | [4] 0.002 | [5] -0.026 | [18] -0.016 | [6] -0.032 | [7] 0.032 | [8] 0.004 | [9] 0.04 | [10] -0.002 | [19] 0.005 | [11] 0.006 | [12] -0.036 | [13] 0.016 | [14] -0.024 | [15] 0.026 | [16] 0.075 | [17] 0.003

EEF1G isoform 2 (UniProt P26641)
inactive: [1] -0.051 | [2] 0.062 | [3] -0.009 | [4] -0.016 | [5] -0.036 | [18] -0.021 | [6] 0.083 | [7] 0.012 | [8] 0.001 | [9] -0.031 | [10] -0.02 | [19] -0.083 | [11] 0.044 | [12] 0.059 | [13] 0.006 | [14] -0.067 | [15] -0.024 | [16] 0.042 | [17] 0.017

Two consecutive records from above, for reference:
EOGT (UniProt Q5NDL2)
inactive: [1] -0.058 | [2] -0.018 | [3] -0.032 | [4] 0.002 | [5] -0.026 | [18] -0.016 | [6] -0.032 | [7] 0.032 | [8] 0.004 | [9] 0.04 | [10] -0.002 | [19] 0.005 | [11] 0.006 | [12] -0.036 | [13] 0.016 | [14] -0.024 | [15] 0.026 | [16] 0.075 | [17] 0.003

EEF1G isoform 2 (UniProt P26641)
inactive: [1] -0.051 | [2] 0.062 | [3] -0.009 | [4] -0.016 | [5] -0.036 | [18] -0.021 | [6] 0.083 | [7] 0.012 | [8] 0.001 | [9] -0.031 | [10] -0.02 | [19] -0.083 | [11] 0.044 | [12] 0.059 | [13] 0.006 | [14] -0.067 | [15] -0.024 | [16] 0.042 | [17] 0.017

From the supplement of paper PMC10849652
